Laboratory results: article PMC3196505

What was measured:
Test in all cases: two-hybrid; directed Y2H with Clontech MatchMaker GAL4 Two-Hybrid System 3 (pGADT7/pGAD-GW and pGBKT7/pGBK-GW constructs); growth on selective medium
[1] = target: T1, CJD1_(60–164), GAL4 fusion (directed yeast 2-hybrid) (Arabidopsis thaliana) (UniProt Q93WG3)
T1 sequence: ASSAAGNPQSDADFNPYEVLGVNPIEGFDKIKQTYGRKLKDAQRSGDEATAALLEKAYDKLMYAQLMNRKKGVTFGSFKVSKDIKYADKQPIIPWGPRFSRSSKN

[2] = target: ARC6_(84–331) (Arabidopsis thaliana)
[3] = target: Mature cpHSP70-2 (aa77–718) (Arabidopsis thaliana)
[4] = target: ARC6_(154–331) (Arabidopsis thaliana)
[5] = target: J domain (amino acids 32–200) of atDjA24 (Arabidopsis thaliana)

binding [1]: binds
Molecule: ARC6_(84–331) (Arabidopsis thaliana) (domain or fragment)

binding [2]: binds
binding [3]: no binding
binding [4]: no binding
B1: CJD1_(60–164), GAL4 fusion (directed yeast 2-hybrid) (domain or fragment, UniProt Q93WG3 60-164)
chain: T1 sequence

binding [5]: binds
B2: Mature cpHSP70-1 (aa77–718) (domain or fragment, UniProt Q9STW6 77-718)
chain: NEKVVGIDLGTTNSAVAAMEGGKPTIVTNAEGQRTTPSVVAYTKSGDRLVGQIAKRQAVVNPENTFFSVKRFIGRKMNEVDEESKQVSYRVVRDENNNVKLECPAINKQFAAEEISAQVLRKLVDDASRFLNDKVTKAVITVPAYFNDSQRTATKDAGRIAGLEVLRIINEPTAASLAYGFDRKANETILVFDLGGGTFDVSVLEVGDGVFEVLSTSGDTHLGGDDFDKRVVDWLAAEFKKDEGIDLLKDKQALQRLTEAAEKAKIELSSLTQTNMSLPFITATADGPKHIETTLTRAKFEELCSDLLDRVRTPVENSLRDAKLSFKDIDEVILVGGSTRIPAVQELVRKVTGKEPNVTVNPDEVVALGAAVQAGVLAGDVSDIVLLDVTPLSIGLETLGGVMTKIIPRNTTLPTSKSEVFSTAADGQTSVEINVLQGEREFVRDNKSLGSFRLDGIPPAPRGVPQIEVKFDIDANGILSVSAVDKGTGKKQDITITGASTLPKDEVDQMVQEAERFAKDDKEKRDAIDTKNQADSVVYQTEKQLKELGEKIPGEVKEKVEAKLQELKDKIGSGSTQEIKDAMAALNQEVMQIGQSLYNQPGAGGPGAGPSPGGEGASSGDSSSSKGGDGDDVIDADFTDSQ

These are yes or no findings as the source states them, for the method shown. For some assays here: Binding can be weak; no strength is given. For some assays here: Tags and fused reporters may be left off the sequences shown. Each block holds one molecule with its values, some of them ahead of it.
